Columns and labels:
LNCaP cells [1] = test: Effect of enzalutamide on redirected T-cell cytotoxicity in LNCaP cells expressing GFP (Example 1); assay type: cell-based; settings: Homo sapiens, 96 h, approximate, 4 days, read-out: EC50 for growth inhibition of LNCaP cells
Method: A titration of the anti-PSMA bispecific molecule TSC249 (protein sequence of SEQ ID NO: 78 in Table 3) was added to all sets of LNCaP cells in the amounts shown on the x-axis. T-cells and DMSO were added to the first set of LNCaP cells (leftmost set of bars). […] No T-cells and DMSO were added to the third set of LNCaP cells (set of bars second from the right). […] LNCaP cell growth (number of live cells) was measured by overall fluorescence and expressed as a fraction of live cells relative to the cells untreated with TSC249 on the y-axis.
LNCaP cells expressing GFP were cultured with donor T-cells at a 3:1 ratio of T-cells to LNCaP target cells for 4 days. […] DMSO alone was added to other samples. A titration of the anti-PSMA bispecific molecule TSC249 (protein sequence of SEQ ID NO: 78 in Table 3) was added to the cell cultures. LNCaP cell growth (number of live cells) was monitored by overall fluorescence.

LNCaP cells [2] = test: Growth inhibition of LNCaP-GFP cells with primary human T-cells, 4 days, with combination index analysis (Example 6); assay type: cell-based
Method: FIG. 4A and FIG. 4B are graphs showing the results of assays measuring the effectiveness of enzalutamide and the anti-PSMA bispecific molecule TSC249 at inhibiting the growth of prostate cancer cells sensitive to both agents (the enzalutamide-sensitive cell line LNCaP). LNCaP cells stably expressing GFP were cultured in 96 well plates for 4 days in the presence of primary human T cells and titrations of either enzalutamide (FIG. 4A) or TSC249 (FIG. 4B). Additional procedures are described in Example 6. Percentage of live cells relative to an untreated control is shown on the y-axis. […]
To study the effects of combining enzalutamide and a bispecific binding molecule targeting PSMA and CD3 (TSC249) to inhibit the growth of prostate cancer cells sensitive to both agents, the enzalutamide-sensitive cell line LNCaP was used in growth inhibition assays. […] Overall fluorescent signal from GFP enabled the quantitation of living LNCaP target cells in isolation from T-cells. […]
After 4 days culture at 37° C. in 5% CO2, media was aspirated from wells and […] of 0.4% NP-40 was added to each well. Fluorescent signal from GFP in LNCaP cells adherent in wells was detected by a Spectramax plate reader, reading from the bottom of the wells. […]

EC50 (LNCaP cells [2]; 96 h, LNCaP-GFP with primary human T-cells, 4 day time period, enzalutamide alone, read-out: EC50 (decrease in live cells)): 100 to 300 nM
SMILES: CNC(=O)c1ccc(N2C(=S)N(c3ccc(C#N)c(C(F)(F)F)c3)C(=O)C2(C)C)cc1F [enzalutamide]
EC50 (LNCaP cells [1]): ~160 nM
interaction by combination index (Chou and Talalay) (LNCaP cells [2]; 1.95-31.25 pM TSC249 at all enzalutamide concentrations used (39, 156, 625 nM)): Synergy

Source: patent US20180022819A1, “COMPOSITIONS AND METHODS FOR COMBINATION THERAPY WITH PROSTATE-SPECIFIC MEMBRANE ANTIGEN BINDING PROTEINS” (APTEVO RESEARCH AND DEVELOPMENT LLC, priority 2015, published 2018)
